Source: the supplement of paper PMC12823440, “Inhibitors supercharge kinase turnover through native proteolytic circuits” (Nature, 2025)
Where a name gives a salt, the structure may show the parent alone. This is one part of the list. The calls rarely recur for the same compound in another form.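 In K562 cells expressing nanoluciferase-fused kinases, luminescence was recorded at 4 h intervals between 2 and 18 h, normalized as percent of control with DMSO at 100% and a positive control at 0%. A significant (2 sigma) signal drop marks a time point as decreased. The authors' rule for a hit is not shown and takes in more than the number of time points.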

By UniProt entry, the sequences of proteins in these tests, tags left out. Where a name states a change or a piece, a line headed by the entry shows the natural chain unless it says otherwise.
UniProt P53667: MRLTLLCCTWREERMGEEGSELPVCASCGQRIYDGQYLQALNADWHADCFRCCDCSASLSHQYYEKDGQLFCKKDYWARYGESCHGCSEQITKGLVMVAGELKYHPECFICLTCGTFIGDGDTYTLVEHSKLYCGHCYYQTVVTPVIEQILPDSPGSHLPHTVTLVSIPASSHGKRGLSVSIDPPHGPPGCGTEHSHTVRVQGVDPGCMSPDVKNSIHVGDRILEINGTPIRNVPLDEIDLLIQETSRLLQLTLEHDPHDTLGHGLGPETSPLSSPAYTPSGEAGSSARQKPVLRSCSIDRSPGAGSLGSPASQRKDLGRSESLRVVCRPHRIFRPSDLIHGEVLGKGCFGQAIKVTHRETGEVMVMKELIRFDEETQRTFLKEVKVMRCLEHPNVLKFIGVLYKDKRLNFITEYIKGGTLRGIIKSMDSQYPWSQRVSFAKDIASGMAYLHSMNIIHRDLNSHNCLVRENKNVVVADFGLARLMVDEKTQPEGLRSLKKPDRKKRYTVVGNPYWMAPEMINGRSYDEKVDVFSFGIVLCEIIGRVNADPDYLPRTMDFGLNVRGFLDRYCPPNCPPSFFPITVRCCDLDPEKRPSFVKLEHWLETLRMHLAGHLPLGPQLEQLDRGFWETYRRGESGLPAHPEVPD
UniProt Q8IWU2: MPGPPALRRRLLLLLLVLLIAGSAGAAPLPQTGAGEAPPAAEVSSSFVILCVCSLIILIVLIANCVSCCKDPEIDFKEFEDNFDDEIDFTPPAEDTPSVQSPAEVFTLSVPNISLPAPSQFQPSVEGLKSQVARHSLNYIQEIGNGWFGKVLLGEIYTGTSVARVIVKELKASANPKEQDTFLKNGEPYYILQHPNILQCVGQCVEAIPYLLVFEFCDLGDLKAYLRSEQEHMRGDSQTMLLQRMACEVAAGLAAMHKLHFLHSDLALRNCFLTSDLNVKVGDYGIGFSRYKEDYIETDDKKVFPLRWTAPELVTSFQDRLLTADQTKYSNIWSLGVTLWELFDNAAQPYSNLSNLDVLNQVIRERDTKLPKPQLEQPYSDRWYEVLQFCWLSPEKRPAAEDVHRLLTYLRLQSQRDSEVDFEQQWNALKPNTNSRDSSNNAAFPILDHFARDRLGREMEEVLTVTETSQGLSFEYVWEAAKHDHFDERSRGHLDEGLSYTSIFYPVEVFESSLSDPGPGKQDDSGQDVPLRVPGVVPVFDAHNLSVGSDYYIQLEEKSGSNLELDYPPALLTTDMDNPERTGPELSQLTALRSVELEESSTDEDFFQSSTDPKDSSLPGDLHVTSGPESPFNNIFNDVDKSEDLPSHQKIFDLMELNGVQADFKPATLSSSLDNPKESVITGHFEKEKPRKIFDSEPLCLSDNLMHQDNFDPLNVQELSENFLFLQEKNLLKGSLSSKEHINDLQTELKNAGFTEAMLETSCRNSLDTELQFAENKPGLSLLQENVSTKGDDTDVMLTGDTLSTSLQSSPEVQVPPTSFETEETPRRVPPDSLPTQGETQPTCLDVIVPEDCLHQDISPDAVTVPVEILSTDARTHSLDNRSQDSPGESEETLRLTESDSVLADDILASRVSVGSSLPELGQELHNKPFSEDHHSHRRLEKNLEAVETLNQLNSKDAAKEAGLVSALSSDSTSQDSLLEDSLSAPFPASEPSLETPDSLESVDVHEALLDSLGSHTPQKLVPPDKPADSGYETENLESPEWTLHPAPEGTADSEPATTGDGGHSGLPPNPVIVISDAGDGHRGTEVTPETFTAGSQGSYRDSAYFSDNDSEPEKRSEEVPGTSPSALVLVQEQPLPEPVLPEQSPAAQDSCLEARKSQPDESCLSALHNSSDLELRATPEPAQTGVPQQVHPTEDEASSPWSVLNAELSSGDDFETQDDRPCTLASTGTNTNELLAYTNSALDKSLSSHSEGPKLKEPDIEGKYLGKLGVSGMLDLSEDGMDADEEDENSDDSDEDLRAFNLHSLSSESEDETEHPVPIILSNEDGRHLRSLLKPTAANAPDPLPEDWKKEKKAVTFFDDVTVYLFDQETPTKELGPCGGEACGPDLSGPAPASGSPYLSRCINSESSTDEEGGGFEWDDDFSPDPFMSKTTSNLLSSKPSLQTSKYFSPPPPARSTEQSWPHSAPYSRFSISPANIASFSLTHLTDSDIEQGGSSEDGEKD
UniProt P07948: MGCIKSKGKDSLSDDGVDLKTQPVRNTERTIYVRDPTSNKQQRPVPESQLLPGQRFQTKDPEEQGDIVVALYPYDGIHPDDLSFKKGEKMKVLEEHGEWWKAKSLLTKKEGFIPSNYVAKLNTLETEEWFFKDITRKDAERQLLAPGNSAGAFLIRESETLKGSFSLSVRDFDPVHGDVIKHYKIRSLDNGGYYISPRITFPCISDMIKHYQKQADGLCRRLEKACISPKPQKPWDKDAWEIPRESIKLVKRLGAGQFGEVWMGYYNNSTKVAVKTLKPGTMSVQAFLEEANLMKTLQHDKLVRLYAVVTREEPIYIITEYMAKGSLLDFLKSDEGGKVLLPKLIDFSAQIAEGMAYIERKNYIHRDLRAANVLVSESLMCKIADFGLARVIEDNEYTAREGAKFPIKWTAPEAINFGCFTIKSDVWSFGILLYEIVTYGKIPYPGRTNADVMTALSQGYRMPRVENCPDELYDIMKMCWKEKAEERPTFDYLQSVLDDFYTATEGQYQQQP
UniProt P28482, whole entry: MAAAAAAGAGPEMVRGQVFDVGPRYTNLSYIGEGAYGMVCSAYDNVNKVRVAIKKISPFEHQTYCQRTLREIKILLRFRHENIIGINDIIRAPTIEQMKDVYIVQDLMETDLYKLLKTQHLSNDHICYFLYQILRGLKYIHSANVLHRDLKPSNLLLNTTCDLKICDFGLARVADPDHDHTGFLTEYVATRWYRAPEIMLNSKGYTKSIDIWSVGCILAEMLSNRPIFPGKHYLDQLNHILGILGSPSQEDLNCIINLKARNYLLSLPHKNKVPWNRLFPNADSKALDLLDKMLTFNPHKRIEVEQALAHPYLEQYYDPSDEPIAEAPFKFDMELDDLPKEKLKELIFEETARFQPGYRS
UniProt P31152, whole entry: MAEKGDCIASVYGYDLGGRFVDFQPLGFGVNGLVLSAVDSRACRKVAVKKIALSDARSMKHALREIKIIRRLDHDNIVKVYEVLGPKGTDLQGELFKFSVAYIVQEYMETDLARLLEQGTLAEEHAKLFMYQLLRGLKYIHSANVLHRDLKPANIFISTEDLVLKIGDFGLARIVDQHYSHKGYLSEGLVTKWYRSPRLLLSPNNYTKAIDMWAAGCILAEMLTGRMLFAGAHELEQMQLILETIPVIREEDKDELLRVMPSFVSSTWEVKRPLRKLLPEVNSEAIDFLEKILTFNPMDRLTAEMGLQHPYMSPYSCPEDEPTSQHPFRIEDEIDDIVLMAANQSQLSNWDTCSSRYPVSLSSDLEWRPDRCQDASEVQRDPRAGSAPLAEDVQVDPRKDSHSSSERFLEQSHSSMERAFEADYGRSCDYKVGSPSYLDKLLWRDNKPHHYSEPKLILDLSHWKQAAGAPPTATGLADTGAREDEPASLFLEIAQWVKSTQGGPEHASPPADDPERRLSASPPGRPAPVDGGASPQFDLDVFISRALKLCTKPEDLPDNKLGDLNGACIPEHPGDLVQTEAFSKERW
UniProt P49137, whole entry, looked up: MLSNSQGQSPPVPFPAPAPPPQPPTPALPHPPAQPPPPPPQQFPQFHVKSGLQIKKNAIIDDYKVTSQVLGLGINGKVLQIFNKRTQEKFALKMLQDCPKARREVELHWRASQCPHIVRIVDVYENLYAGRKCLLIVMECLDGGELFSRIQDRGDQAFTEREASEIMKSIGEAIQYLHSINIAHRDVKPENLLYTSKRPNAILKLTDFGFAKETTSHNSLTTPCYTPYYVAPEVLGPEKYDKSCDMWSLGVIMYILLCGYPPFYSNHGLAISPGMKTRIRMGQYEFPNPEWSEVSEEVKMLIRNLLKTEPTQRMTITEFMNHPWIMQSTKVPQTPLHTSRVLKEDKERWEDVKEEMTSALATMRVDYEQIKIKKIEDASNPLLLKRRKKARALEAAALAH
UniProt Q16288, whole entry, looked up: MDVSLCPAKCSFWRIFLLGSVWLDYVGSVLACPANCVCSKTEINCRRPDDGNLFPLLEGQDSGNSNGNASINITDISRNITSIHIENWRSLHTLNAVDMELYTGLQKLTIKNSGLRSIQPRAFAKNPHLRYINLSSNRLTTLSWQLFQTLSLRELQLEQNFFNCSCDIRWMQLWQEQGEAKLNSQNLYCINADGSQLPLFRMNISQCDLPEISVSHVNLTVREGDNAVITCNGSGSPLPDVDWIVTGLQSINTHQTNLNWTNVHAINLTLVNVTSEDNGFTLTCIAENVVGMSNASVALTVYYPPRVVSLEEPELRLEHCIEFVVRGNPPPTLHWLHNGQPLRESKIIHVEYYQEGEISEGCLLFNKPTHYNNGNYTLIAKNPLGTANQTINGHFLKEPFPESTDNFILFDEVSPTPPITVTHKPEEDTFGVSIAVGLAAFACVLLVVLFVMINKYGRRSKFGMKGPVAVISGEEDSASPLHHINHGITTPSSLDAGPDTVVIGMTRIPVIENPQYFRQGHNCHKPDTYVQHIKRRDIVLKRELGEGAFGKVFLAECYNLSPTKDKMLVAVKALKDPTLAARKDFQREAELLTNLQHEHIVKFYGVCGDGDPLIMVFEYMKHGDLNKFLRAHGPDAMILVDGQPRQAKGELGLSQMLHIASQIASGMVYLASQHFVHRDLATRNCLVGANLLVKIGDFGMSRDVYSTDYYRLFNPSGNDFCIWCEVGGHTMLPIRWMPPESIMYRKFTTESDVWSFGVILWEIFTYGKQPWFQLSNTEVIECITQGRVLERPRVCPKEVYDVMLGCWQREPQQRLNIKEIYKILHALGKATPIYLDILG
UniProt O96013: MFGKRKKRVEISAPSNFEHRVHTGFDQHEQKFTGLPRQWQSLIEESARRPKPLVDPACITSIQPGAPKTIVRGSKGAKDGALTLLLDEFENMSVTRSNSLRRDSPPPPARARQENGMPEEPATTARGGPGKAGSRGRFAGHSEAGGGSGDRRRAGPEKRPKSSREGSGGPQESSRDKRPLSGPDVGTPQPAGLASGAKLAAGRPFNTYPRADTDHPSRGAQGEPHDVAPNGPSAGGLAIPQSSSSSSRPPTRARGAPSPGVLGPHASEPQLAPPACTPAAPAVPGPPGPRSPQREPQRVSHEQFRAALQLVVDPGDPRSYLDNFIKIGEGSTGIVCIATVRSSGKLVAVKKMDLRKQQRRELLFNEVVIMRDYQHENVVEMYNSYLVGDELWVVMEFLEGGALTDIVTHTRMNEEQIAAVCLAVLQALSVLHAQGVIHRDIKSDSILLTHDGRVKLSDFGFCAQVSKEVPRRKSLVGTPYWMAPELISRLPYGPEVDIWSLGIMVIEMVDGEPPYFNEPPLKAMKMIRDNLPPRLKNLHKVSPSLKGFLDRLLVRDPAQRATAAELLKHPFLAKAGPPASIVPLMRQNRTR
UniProt Q96KB5: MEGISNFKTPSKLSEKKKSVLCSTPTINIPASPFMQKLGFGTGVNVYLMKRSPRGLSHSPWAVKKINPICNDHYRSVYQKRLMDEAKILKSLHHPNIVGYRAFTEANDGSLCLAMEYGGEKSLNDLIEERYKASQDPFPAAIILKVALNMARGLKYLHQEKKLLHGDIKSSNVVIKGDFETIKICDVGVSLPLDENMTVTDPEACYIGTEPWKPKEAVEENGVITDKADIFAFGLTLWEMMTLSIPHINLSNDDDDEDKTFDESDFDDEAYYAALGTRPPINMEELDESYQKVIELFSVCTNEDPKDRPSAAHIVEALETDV
UniProt Q15118, whole entry, looked up: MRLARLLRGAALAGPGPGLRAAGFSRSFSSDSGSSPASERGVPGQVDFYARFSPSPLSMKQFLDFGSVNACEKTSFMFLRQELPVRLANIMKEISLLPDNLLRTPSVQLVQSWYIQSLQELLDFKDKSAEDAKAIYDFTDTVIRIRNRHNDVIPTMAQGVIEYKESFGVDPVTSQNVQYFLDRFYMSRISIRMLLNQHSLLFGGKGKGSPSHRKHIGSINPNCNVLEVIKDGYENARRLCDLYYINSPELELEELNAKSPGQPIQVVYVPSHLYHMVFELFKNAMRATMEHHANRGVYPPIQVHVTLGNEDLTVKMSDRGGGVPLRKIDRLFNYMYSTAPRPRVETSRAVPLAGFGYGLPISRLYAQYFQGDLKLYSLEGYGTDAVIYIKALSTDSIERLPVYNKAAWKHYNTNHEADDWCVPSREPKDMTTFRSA

What was measured:
Test in all cases: kinase-Nluc reporter destabilization hit call (1 = scored as downregulated) (binary); higher = compound decreases kinase abundance
Conditions in all cases: K562; 2-18 h
IRAK3 = IRAK3 (UniProt Q9Y616)
JAK1 = JAK1 (UniProt P23458)
LCK = LCK (UniProt P06239)
LIMK1 = LIMK1 (UniProt P53667)
LIMK2 = LIMK2 (UniProt P53671)
LMTK2 = LMTK2 (UniProt Q8IWU2)
LYN = LYN (UniProt P07948)
MAP2K1 = MAP2K1 (UniProt Q02750)
MAP2K2 = MAP2K2 (UniProt P36507)
MAP4K2 = MAP4K2 (UniProt Q12851)
MAPK1 = MAPK1 (UniProt P28482)
MAPK4 = MAPK4 (UniProt P31152)
MAPKAPK2 = MAPKAPK2 (UniProt P49137)
MKNK1 = MKNK1 (UniProt Q9BUB5)
NTRK2 = NTRK2 (UniProt Q16620)
NTRK3 = NTRK3 (UniProt Q16288)
PAK4 = PAK4 (UniProt O96013)
PBK = PBK (UniProt Q96KB5)
PDGFRB = PDGFRB (UniProt P09619)
PDK1 = PDK1 (UniProt Q15118)

Measured: kinase-Nluc reporter destabilization hit call

CC(=O)OC(C)(C)/C=C/C(=O)[C@](C)(O)[C@H]1[C@H](O)C[C@@]2(C)[C@@H]3CC=C4[C@@H](C=C(O)C(=O)C4(C)C)[C@]3(C)C(=O)C[C@]12C [Cucurbitacin E] (2.5 µM)
inactive: IRAK3 = 0 | JAK1 = 0 | LCK 0 | LIMK1 = 0 | LIMK2 = 0 | LMTK2 = 0 | LYN 0 | MAP2K1 = 0 | MAP2K2 = 0 | MAP4K2 = 0 | MAPK1 = 0 | MAPK4 = 0 | MAPKAPK2 = 0 | MKNK1 = 0 | NTRK2 = 0 | NTRK3 = 0 | PAK4 = 0 | PBK 0 | PDGFRB 0 | PDK1 = 0

CCCCCCCCCCCCCCCCOC[C@H](COP(=O)([O-])OCC[N+](C)(C)C)OC(C)=O (10 µM)
inactive: IRAK3 = 0 | JAK1 = 0 | LCK 0 | LIMK1 = 0 | LIMK2 = 0 | LMTK2 = 0 | LYN 0 | MAP2K1 = 0 | MAP2K2 = 0 | MAP4K2 = 0 | MAPK1 = 0 | MAPK4 = 0 | MAPKAPK2 = 0 | MKNK1 = 0 | NTRK2 = 0 | NTRK3 = 0 | PAK4 = 0 | PBK 0 | PDGFRB 0 | PDK1 = 0

CC(=O)c1c(O)c(C)c(O)c(Cc2c(O)c3c(c(C(=O)/C=C/c4ccccc4)c2O)OC(C)(C)C=C3)c1O [Rottlerin] (2 µM)
inactive: IRAK3 = 0 | JAK1 = 0 | LCK 0 | LIMK1 = 0 | LIMK2 = 0 | LMTK2 = 0 | LYN 0 | MAP2K1 = 0 | MAP2K2 = 0 | MAP4K2 = 0 | MAPK1 = 0 | MAPK4 = 0 | MAPKAPK2 = 0 | MKNK1 = 0 | NTRK2 = 0 | NTRK3 = 0 | PAK4 = 0 | PBK 0 | PDGFRB 0 | PDK1 = 0

C=C[C@H]1CN2CC[C@]3(C(=O)Nc4ccccc43)[C@@H]2C[C@@H]1/C(=C\OC)C(=O)OC [Corynoxeine] (2 µM)
inactive: IRAK3 = 0 | JAK1 = 0 | LCK 0 | LIMK1 = 0 | LIMK2 = 0 | LMTK2 = 0 | LYN 0 | MAP2K1 = 0 | MAP2K2 = 0 | MAP4K2 = 0 | MAPK1 = 0 | MAPK4 = 0 | MAPKAPK2 = 0 | MKNK1 = 0 | NTRK2 = 0 | NTRK3 = 0 | PAK4 = 0 | PBK 0 | PDGFRB 0 | PDK1 = 0

O=C1c2ccccc2C(=O)c2c1cccc2-c1cnn(C2CCNCC2)c1 [PDK4-IN-1 (hydrochloride)] (10 µM)
inactive: IRAK3 = 0 | JAK1 = 0 | LCK 0 | LIMK1 = 0 | LIMK2 = 0 | LMTK2 = 0 | LYN 0 | MAP2K1 = 0 | MAP2K2 = 0 | MAP4K2 = 0 | MAPK1 = 0 | MAPK4 = 0 | MAPKAPK2 = 0 | MKNK1 = 0 | NTRK2 = 0 | NTRK3 = 0 | PAK4 = 0 | PBK 0 | PDGFRB 0 | PDK1 = 0

C[C@H]1CC[C@]2(NC1)O[C@H]1C[C@H]3[C@@H]4CC[C@H]5C[C@@H](O)CC[C@]5(C)[C@H]4CC[C@]3(C)[C@H]1[C@@H]2C [Tomatidine] (2 µM)
inactive: IRAK3 = 0 | JAK1 = 0 | LCK 0 | LIMK1 = 0 | LIMK2 = 0 | LMTK2 = 0 | LYN 0 | MAP2K1 = 0 | MAP2K2 = 0 | MAP4K2 = 0 | MAPK1 = 0 | MAPK4 = 0 | MKNK1 = 0 | NTRK2 = 0 | NTRK3 = 0 | PAK4 = 0 | PBK 0 | PDGFRB 0 | PDK1 = 0
